Assay results as given in patent US11647752B2 (priority 2020, dated 2023).

Test system: bacteria in tobacco rhizosphere soil

With `[Na+].[SH-]` [NaHS] the “Increase of relative abundance of bacteroidetes” value was 45.43%, the “Increase of relative abundance of gemmatimonadetes” value was 6.57%-96.10 and the “Increase of relative abundance of verrucomicrobia” value was 223.77%. The “Increase range of relative abundance of firmicutes versus the other treatments” value was 220.69-558.21%.
